In ChEMBL document CHEMBL4007428, “Modulating the selectivity of matriptase-2 inhibitors with unnatural amino acids” (Eur J Med Chem, 2017):

Experiments:
[1] = target: T1, Suppressor of tumorigenicity 14 protein (Homo sapiens, UniProt Q9Y5Y6)
T1 sequence (Q9Y5Y6 whole entry): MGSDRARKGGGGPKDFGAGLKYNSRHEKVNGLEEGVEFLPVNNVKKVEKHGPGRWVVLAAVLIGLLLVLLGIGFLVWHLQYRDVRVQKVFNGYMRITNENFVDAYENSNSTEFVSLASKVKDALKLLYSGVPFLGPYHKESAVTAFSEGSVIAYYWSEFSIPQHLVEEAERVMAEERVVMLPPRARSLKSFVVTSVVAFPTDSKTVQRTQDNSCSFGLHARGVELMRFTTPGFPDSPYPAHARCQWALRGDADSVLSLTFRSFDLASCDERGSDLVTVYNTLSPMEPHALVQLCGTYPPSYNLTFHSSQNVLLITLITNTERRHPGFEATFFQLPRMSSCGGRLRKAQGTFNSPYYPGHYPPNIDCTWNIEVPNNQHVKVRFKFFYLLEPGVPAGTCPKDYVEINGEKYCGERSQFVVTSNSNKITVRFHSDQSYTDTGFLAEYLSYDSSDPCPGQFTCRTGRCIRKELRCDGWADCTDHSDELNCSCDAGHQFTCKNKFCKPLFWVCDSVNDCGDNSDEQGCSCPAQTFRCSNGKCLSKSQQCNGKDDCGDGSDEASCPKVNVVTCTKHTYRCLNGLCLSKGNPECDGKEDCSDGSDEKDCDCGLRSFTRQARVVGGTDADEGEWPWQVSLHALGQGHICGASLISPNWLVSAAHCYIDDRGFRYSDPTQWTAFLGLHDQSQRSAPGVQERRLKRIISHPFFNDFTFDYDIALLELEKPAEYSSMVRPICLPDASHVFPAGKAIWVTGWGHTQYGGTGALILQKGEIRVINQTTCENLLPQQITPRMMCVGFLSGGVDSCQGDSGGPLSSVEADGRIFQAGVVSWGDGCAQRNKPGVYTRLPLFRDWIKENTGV

Homo sapiens = species: Homo sapiens; test: Selectivity ratio of Ki for recombinant human matriptase (596 to 855 residues) expressed in Escherichia coli to Ki for recombinant human C-terminal V5-His-tagged matriptase-2 expressed in Drosophila S2 cells

## N=C(N)NCCC[C@H](NC(=O)[C@H](Cc1ccc2ccccc2c1)NC(=O)C(Cc1ccc(O)cc1)NC(=O)[C@@H](N)Cc1ccc(O)cc1)C(=O)c1nc2ccccc2s1 (single isomer, unassigned)
[1]
  Ki: 0.044 µM
Homo sapiens
  Ratio Ki: 8
